PubChem BioAssay AID1259327 – Drosophila RNAi Screening Center, 2017
Here is a random part of about 3,100 deposited reagents. In the full data, 378 (12%) were called active. 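Hits include both directions; z-score sign shows ATP rise or fall; raw luminescence values are not plate-normalised.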 A number with no mark means an inactive call. Names joined by + are all predicted targets of the reagent. Not stated in the record: the amount of reagent.

Assay: 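Knock-downs altering cellular ATP with no metal added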
System: Drosophila S2R+ cells
Knock-down reagent: long dsRNA against Drosophila genes
Time to read-out: 5 days (water added on day 4, read one day later)
Challenge: water added as vehicle, no metal, one day before read-out
Detection: 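Luciferase ATP signal per well, normalised to plate mean, duplicate average converted to z-score across plates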
Reading the numbers: ATP z-score: higher = more total ATP than typical wells; ATP luminescence: higher = more total ATP
Hit rule: 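Called active when the ATP z-score exceeds 1.5 or falls below -1.5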
Calls: active = hit: ATP up or down; inactive = no clear ATP change

no.	gene	amplicon	ATP z-score, duplicate mean	ATP luminescence, replicate 1 (RLU)	ATP luminescence, replicate 2 (RLU)
1	fzo	DRSC16954	-0.176	3.10e5	6.96e5
2	fzo	DRSC39864	-0.7	5.11e5	5.39e5
3	Scgdelta	DRSC18544	-0.556	5.80e5	6.74e5
4	Ir76b	DRSC10831	1.1	1.14e6	9.44e5
5	Ir76b	DRSC39663	0.261	4.31e5	5.37e5
6	18w	DRSC29700	-0.588	8.26e5	6.84e5
7	NaCP60E	DRSC04307	-0.331	7.09e5	6.81e5
8	NaCP60E	DRSC26120	0.467	8.80e5	9.37e5
9	CG8237	DRSC07119	0.732	8.08e5	8.11e5
10	CG8237	DRSC26686	4.61 (active)	7.57e5	8.41e5
11	Oatp30B	DRSC02727	0.267	5.05e5	4.90e5
12	Oatp30B	DRSC39872	-0.764	5.18e5	5.20e5
13	Or56a	DRSC07495	0.859	7.25e5	6.69e5
14	Or56a	DRSC39490	-0.933	4.05e5	3.78e5
15	rpk	DRSC21656	-2.05 (active)	3.85e5	4.27e5
16	CG13869 + CG11099	DRSC24218	-0.12	9.03e5	1.00e6
17	Loxl1	DRSC14303	-1.08	6.26e5	6.87e5
18	galene	DRSC08640	-0.569	5.87e5	5.49e5
19	galene	DRSC08641	0.043	7.57e5	7.36e5
20	alpha-Cat	DRSC39510	0.424	5.17e5	4.47e5
21	Ret	DRSC03409	0.453	8.20e5	7.38e5
22	Ret	DRSC03410	0.558	7.54e5	8.16e5
23	Ret	DRSC37019	0.592	6.10e5	6.50e5

Targets listed so far whose gene name starts with I or i:
gene	amplicon	ATP z-score, duplicate mean	ATP luminescence, replicate 1 (RLU)	ATP luminescence, replicate 2 (RLU)
Ir76b	DRSC10831	1.1	1.14e6	9.44e5
Ir76b	DRSC39663	0.261	4.31e5	5.37e5

Additional results follow:
no.	gene	amplicon	ATP z-score, duplicate mean	ATP luminescence, replicate 1 (RLU)	ATP luminescence, replicate 2 (RLU)
24	CG9826	DRSC04570	0.878	8.02e5	8.37e5
25	CG31272	DRSC16058	-0.361	2.91e5	7.01e5
26	CG31272	DRSC37457	0.248	5.89e5	6.12e5
27	Tpc2	DRSC04322	0.718	8.28e5	7.77e5
28	SdhCL	DRSC16078	-0.63	2.80e5	6.71e5
29	SdhCL	DRSC39758	-0.0841	4.48e5	4.71e5
30	Atg9	DRSC38118	0.259	5.68e5	6.36e5
31	Atg9	DRSC38119	-0.43	5.42e5	5.44e5
32	CG4480	DRSC02750	-0.502	6.73e5	6.73e5
33	Ir75c	DRSC10190	-1.04	6.35e5	6.23e5
34	CG6484	DRSC06991	1.24	8.27e5	9.01e5
35	CG6484	DRSC28087	-1.13	1.12e6	9.62e5
36	colt	DRSC00808	-0.66	4.53e5	4.11e5
37	colt	DRSC29025	0.329	8.87e5	8.40e5
38	PK2-R2	DRSC16448	0.441	2.85e5	8.95e5
39	PK2-R2	DRSC25536	-0.147	7.80e5	8.84e5
40	osy	DRSC14903	-0.617	5.34e5	6.87e5
41	osy	DRSC15979	-0.22	6.88e5	7.51e5
42	osy	DRSC15981	1.47	8.92e5	8.24e5
43	Baldspot	DRSC09671	-0.857	8.26e5	7.43e5
44	Tomosyn	DRSC19842	1.64 (active)	7.82e5	8.29e5
45	Tomosyn	DRSC25047	0.319	8.79e5	9.00e5
46	zpg	DRSC09702	0.0918	8.82e5	9.32e5
47	zpg	DRSC26258	-0.677	7.82e5	7.50e5
